Assay results published in patent US20240294593A1.
No constants are given. Whether binding was seen depends on the method and setting. Some binding calls cover weakened binding; strength is not graded here.

By UniProt entry, the sequences of proteins in these tests, tags left out. Residues count along the entry.
UniProt Q15116, residues 25-167: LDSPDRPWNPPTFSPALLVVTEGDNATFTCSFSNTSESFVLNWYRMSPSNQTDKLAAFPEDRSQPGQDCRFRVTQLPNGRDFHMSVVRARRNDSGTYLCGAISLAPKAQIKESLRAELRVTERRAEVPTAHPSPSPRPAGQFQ

B1: XENP28519 (humanized mAb A, bivalent mAb) (antibody, human IgG1, kappa, V domains shown)
VH: QVQLQESGPGLVKPSQTLSLTCTVSGHSITSDYAWNWIRQPPGKKLEWIGYISYSGYTTYNPSLKSRVTISRDTSKNQFSLKLSSVTAADTAVYFCARDLDYGPWFAYWGQGTLVTVSS
VL: DIQMTQSPSSLSASVGDRVTITCRASENIHNYLAWYQQKPGKSPKLLVYNVKTLADGVPSRFSGSGSGTDYTLTISSLQPEDFATYYCQHFWSSPWTFGGGTKVEIKR
B2: mAb C H1.132_L1 (antibody, V domains shown)
VH: EVQLVESGGGLVQPGGSLRLSCAASGFTFSSFGMHWVRQAPGKGLEWVSYISSGSSIIYYADSVKGRFTISRDNAKNSLYLQMNSLRAEDTAVYYCARGGWLVWSPDYWGQGTLVTVSS
VL: DIVMTQSPDSLAVSLGERATINCKSSQSLLNSGNQKNYLTWYQQKPGQPPKLLIYWASTRESGVPDRFTGSGSGTDFTLTISSLQAEDVAVYYCQNDYSYPFTFGSGTKLEIKR

How the values were obtained:
human PD-1-His (human) [1] = target: human PD-1-His (human) (UniProt Q15116); assay: Octet (Example 7A)
human PD-1-His (human) [2] = target: human PD-1-His (human) (UniProt Q15116); assay: Octet (BLI); antibody captured on AHC biosensors, dipped into multiple concentrations of PD-1-His
human PD-1-His (human) [3] = target: human PD-1-His (human) (UniProt Q15116); assay: Octet
human PD-1-His (human) [4] = target: human PD-1-His (human) (UniProt Q15116); assay: Octet; legend of FIG. 66

Row | Binder | binding (human PD-1-His (human) [1]) | binding (human PD-1-His (human) [2]) | binding (human PD-1-His (human) [3]) | binding (human PD-1-His (human) [4])
1 | B1 | binds | binds |  | 
2 | B2 |  |  | binds | binds
